Data published in the supplement of paper PMC12872613.
The other results are listed elsewhere or left out. No stated cut-off is given here; in the data, active = 0.7 or more and inactive = the rest. Repeats are few or missing, and single values can be far off.

Each molecule was assayed on MiaPaCa-2 CLSA-25 (assay: cell death relative to DMSO vehicle (fraction); higher = more cytotoxic). Conditions: 5 µM; treatment time 48 h; medium cystine 25 µM.
In the case of `CCCCC(=O)O[C@]1(C(=O)CO)CC[C@H]2[C@@H]3CCC4=CC(=O)CC[C@]4(C)[C@H]3[C@@H](O)C[C@@]21C` [Hydrocortisone Valerate], the cell death is reported as inactive: 0.167. `O=C(O)c1ccc2cc(-c3ccc(O)c(C45CC6CC(CC(C6)C4)C5)c3)ccc2c1` was tested, and the cell death was active: 0.702. `CCc1ccc(CCOc2ccc(CC3SC(=O)NC3=O)cc2)nc1` (configuration not stated) [Pioglitazone] was tested, and the cell death was inactive: 0.205. `COCCNC(=O)Nc1ccc2nc(-c3cccs3)c(-c3cccs3)nc2c1` [Ac-CoA Synthase Inhibitor1] was tested, and the cell death was inactive: 0.142. For `CC[C@H](C)C(=O)O[C@H]1C[C@@H](C)C=C2C=C[C@H](C)[C@H](CC[C@@H]3C[C@@H](O)CC(=O)O3)[C@H]21` [Lovastatin], the cell death was inactive: 0.607. With `C/C(=C(\CCOP(=O)(O)O)SC(=O)c1ccccc1)N(C=O)Cc1cnc(C)nc1N` [Benfotiamine] the cell death was inactive: 0.118. With `COc1c(C)c2c(c(O)c1C/C=C(\C)CCC(=O)O)C(=O)OC2` [Mycophenolic acid] the cell death was inactive: 0.106. With `C[C@H]1CO[C@@H]2Cn3cc(C(=O)NCc4ccc(F)cc4F)c(=O)c(O)c3C(=O)N12` [Cabotegravir] the cell death was inactive: 0.233. `CCOC(=O)[C@@H](N)Cc1ccc(-c2cc(O[C@H](c3ccc(Cl)cc3-n3ccc(C)n3)C(F)(F)F)nc(N)n2)cc1` [Telotristat Etiprate] was tested, and the cell death was inactive: 0.369. In the case of `O=C(O)CNC(=O)C1C(=O)N(C2CCCCC2)C(=O)N(C2CCCCC2)C1=O` [Daprodustat], the cell death is reported as inactive: 0.544. `CCNC(=O)c1[nH]nc(-c2cc(Cl)c(O)cc2O)c1-c1ccc(OC)cc1` was tested, and the cell death was inactive: 0.455. `OC[C@@H](O)[C@@H](O)[C@H](O)[C@@H](O)CO` [D-Sorbitol] was tested, and the cell death was inactive: 0.0155. In the case of `COC(=O)[C@H](CC(C)C)NC(=O)c1ccc(NC[C@@H](N)CS)cc1-c1cccc2ccccc12`, the cell death is reported as inactive: 0.117. `CCc1cnc(N2CCC(c3nc(COc4ccc(-n5cnnn5)cc4)cs3)CC2)nc1` was tested, and the cell death was inactive: 0.524. In the case of `Cc1ccccc1N1C(=O)c2cc(S(N)(=O)=O)c(Cl)cc2NC1C` (configuration not stated) [Metolazone], the cell death is reported as inactive: 0.0813. In the case of `O=C(O)C(=O)c1cn(Cc2ccccc2)c2ccc(-c3ccc(OC(F)(F)F)cc3)cc12` [Tiplaxtinin], the cell death is reported as inactive: 0.2. `O=C1C(=Cc2cccnc2)C(=O)c2ccccc21` was tested, and the cell death was inactive: 0.078. With `CCC(C)n1ncn(-c2ccc(N3CCN(c4ccc(OCC5COC(Cn6cncn6)(c6ccc(Cl)cc6Cl)O5)cc4)CC3)cc2)c1=O` (configuration not stated) [Itraconazole] the cell death was active: 0.761. `Cc1cc(=O)oc2cc(O)ccc12` [4-Methylumbelliferone] was tested, and the cell death was inactive: 0.0482. For `c1ccc(-c2[nH]ncc2-c2ccnc3ccccc23)nc1`, the cell death was inactive: 0.213. For `O=C1c2c(O)cc(O)cc2OC(c2ccc(O)c(O)c2)C1O` (configuration not stated) [Taxifolin], the cell death was inactive: 0.15. In the case of `CC(C)C(=O)c1c(C(C)C)nn2ccccc12` [Ibudilast], the cell death is reported as inactive: 0.264. With `N[C@@H](CCC(=O)O)C(=O)O` [glutamic acid] the cell death was inactive: 0.0329. With `CC(C)(C)c1ccc(-c2nc3ccccc3[nH]2)cc1` the cell death was inactive: 0.644. With `Oc1cc(O)c2c(c1)O[C@H](c1ccc(O)c(O)c1)[C@@H](O)C2` [(+)-Catechin Hydrate] the cell death was inactive: 0.267. For `C[C@@H]1O[C@@H](Oc2cc(O)c3c(=O)c(O[C@@H]4O[C@@H](C)[C@H](O)[C@@H](O)[C@H]4O)c(-c4ccc(O)cc4)oc3c2)[C@H](O)[C@H](O)[C@H]1O` [Kaempferitrin], the cell death was active: 0.755. `O=C(O)Cc1nn(Cc2ccc(Br)cc2F)c(=O)c2ccccc12` [Ponalrestat] was tested, and the cell death was inactive: 0.122.
